This experiment has as its target Fas protein (human (endogenous in SW620 and HCT116)) (UniProt P25445). Put plainly: co-IP; SW620 and HCT116 cell lysates in IP lysis buffer (2 mM Tris-HCl pH 7.4, 10 mM EDTA, 100 mM NaCl, 1% IGEPAL); immunoprecipitation with antibodies against CRIP1 or Fas on protein A/G beads; western blot with anti-Fas or anti-CRIP1.

Amino acid sequences for entries named in this document (tags omitted). Residues count along the entry.
UniProt P25445, residues 26-335: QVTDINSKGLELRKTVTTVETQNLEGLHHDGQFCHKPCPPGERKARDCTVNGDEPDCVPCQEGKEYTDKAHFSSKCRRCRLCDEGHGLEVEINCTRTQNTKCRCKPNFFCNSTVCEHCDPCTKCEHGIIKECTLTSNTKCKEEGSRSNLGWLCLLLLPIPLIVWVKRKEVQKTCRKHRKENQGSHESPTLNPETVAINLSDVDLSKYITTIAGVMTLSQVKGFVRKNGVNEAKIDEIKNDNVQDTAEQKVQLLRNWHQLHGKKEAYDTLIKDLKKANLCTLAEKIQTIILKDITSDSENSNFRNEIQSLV

Drawing on article PMC6408822, this text covers binding for 1 molecule.

No constants are given. Whether binding was seen depends on the method and setting. Binding seen in cells or lysates may run through a third protein. Some results given as binding are weak or reduced against the parent protein; the word gives no strength.

B1: Cysteine-rich intestinal protein 1 (protein, UniProt P50238 1-77)
chain: MPKCPKCNKEVYFAERVTSLGKDWHRPCLKCEKCGKTLTSGGHAEHEGKPYCNHPCYAAMFGPKGFGRGGAESHTFK
For the molecule B1, the binding entry is “binds”.
